Data set [1] has as its system GST-ZmDREB2.7 (Zea mays (B73)). The data set can be described thus: EMSA. The settings on record: similar affinity to DRE2, competed by 10-500x cold probe; LightShift Chemiluminescent EMSA Kit (Thermo Scientific) per manufacturer; pH and temperature not stated; recombinant protein; protein details: GST N-terminal (pGEX4T-1); label: 5' biotin. On the technique in general: In EMSA bound probe runs differently from free probe, usually more slowly.

Data set [2] concerns GST-ZmDREB2.1/2A (Zea mays (B73)). The data set can be described thus: EMSA. As to conditions: positive control, similar to ZmDREB2.7; LightShift Chemiluminescent EMSA Kit (Thermo Scientific) per manufacturer; pH and temperature not stated; recombinant protein; protein details: GST N-terminal (pGEX4T-1); label: 5' biotin.

The results in this text go back to publication PMC3784558.

The exact form of at least one protein or probe is not confirmed. For some assays here: At least one verdict rests on a figure or table, not on a statement of the authors.

Turning to “TTGATACTACCGACATGAGTTGATACTACCGACATGAGT (double strand) [DRE1 (ACCGAC)]”, the binding result in data set [1] and in data set [2] was “binds” throughout.
